Laboratory results taken from PubChem BioAssay AID504327 (National Center for Advancing Translational Sciences (NCATS), 2011).
The campaign covered roughly 390,000 compounds. About 820 (0.21%) were called active. The inconclusive results got no clear call from the source; some entries with a clear call stand among them for comparison. Calls come from the whole dose curve; as a rule, active = well fitted inhibition curve with a large enough effect; inconclusive = small, poorly fitted or top-dose-only effect, or another doubt; inactive = no such curve, though single readings can be large or run the other way. A potency beside an inconclusive call is a rough fit, not a confirmed value.

Chains of the proteins cited; added tags and fusions are not shown.
UniProt Q92830, whole entry, looked up: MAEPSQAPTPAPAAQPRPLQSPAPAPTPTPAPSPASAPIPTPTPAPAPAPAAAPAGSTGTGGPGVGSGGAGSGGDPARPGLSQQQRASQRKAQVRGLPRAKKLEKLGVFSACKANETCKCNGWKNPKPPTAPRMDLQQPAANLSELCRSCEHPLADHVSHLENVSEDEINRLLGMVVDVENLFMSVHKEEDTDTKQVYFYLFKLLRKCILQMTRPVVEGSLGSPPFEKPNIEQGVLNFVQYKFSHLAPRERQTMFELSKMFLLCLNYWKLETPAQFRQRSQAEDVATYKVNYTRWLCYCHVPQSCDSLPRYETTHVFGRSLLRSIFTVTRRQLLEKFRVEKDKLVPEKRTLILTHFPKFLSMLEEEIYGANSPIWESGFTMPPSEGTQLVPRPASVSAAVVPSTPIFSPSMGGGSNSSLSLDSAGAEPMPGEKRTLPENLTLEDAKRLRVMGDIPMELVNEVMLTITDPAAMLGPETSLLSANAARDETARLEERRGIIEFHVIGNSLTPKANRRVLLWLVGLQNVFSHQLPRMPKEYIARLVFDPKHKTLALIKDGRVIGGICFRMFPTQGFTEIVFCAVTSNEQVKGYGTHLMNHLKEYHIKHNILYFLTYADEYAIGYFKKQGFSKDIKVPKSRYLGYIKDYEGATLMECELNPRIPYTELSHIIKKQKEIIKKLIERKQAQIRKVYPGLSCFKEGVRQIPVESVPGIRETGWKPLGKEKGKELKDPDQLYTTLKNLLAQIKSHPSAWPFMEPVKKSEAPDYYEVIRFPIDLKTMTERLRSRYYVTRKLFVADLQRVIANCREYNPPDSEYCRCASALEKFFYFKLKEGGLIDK

biological target: Histone acetyltransferase KAT2A (Homo sapiens) (UniProt Q92830); assay: qHTS Assay for Inhibitors of GCN5L2; settings: GCN5L2 HAT assay, ThioGlo1 CoA-SH fluorescence; series mostly up to 58.9 µM
Description: Histone acetyltransferase (HAT) enzymes transfer a […] group from acetyl-coenzyme A to the epsilon-amino group of conserved lysine residues of N-terminal histone tails. Acetylation results in charge neutralization of this positively charged amino acid, decreasing interactions with the […] backbone and making the DNA more accessible for transcription. HATs have been recognized as an emerging drug target for treatment of cancer, diabetes, asthma, chronic obstructive pulmonary disease, cardiac disease, and viral infection. Protein identified with HAT activity include the […] like 2 (GCN5L2, a.ka. Histone acetyltransferase KAT2A) which acetylates histone H3 at Lys9, 14, 18, 13, and to lesser extent histones H4 and H2B. This activates transcription of the gene by modulating chromatin structure and installing the acetyllysine recognition mark for bromodomain-containing coactivator proteins.
A quantitative high throughput screen was developed to identify small molecule inhibitors. The assay is based on the principle that it measures formation of reduced CoA with the pro-fluorescent maleimide derivative ThioGlo1 that becomes fluorescent upon reaction with the free thiol of CoA.
A large number of artifacts are expected in this primary screen, compounded by the assay format (fluorescent artifacts) and by the high top concentration tested for each substance. This BioAssay data deposition should be used with caution, and counterscreen and secondary assay validation is essential since very few actives from the primary screen are expected to be true inhibitors of GCN5L2.
[2] Yasgar, et al. Compound Management for Quantitative High-Throughput Screening. JALA. 2008 Apr;13(2):79-89.
[3] Inglese, et al. Quantitative high-throughput screening: a titration-based approach that efficiently identifies biological activities in large chemical libraries. Proc Natl Acad Sci. 1;103(31):11473-8. 2006. PMID: 16864780
NIH Molecular Libraries Probe Production Network [MLPCN]
NIH Chemical Genomics Center [NCGC]
Structural Genomics Consortium (SGC)
To each well of a 1,536w plate, 3ul of GCN5L2 (final concentration 20nM, in 50mM HEPES, 0.1mM EDTA (pH 7.5), 0.01% Tween-20 buffer) are added using a Kalypsys dispenser. Only buffer is added to some wells as a control. A Kalypsys pin-tool transferred 23nl of library compound solution in DMSO to each well, as well as the control inhibit garcinol. . Following a 15 min incubation of enzyme with compounds at room temperature, 1ul mixture of ThioGlo1 (50uM final), H3(1-25) peptide (75uM final), and Acetyl-CoA (70uM final) is added. Plates are read immediately on the ViewLux (PerkinElmer) (Ex340nm/Em540nm) for a 0 min read, incubated for 20 min at room temperature, and read again on the ViewLux with the same settings. The initial read was carried out to identify compounds that are potentially fluorescent.
Potency is the fitted concentration of half-maximal effect.

| Compound | Potency |
| --- | --- |
| COc1ccc(CNC(=O)C(C#N)c2nc3ccccc3nc2N2CCN(C)CC2)cc1 (stereo not drawn) | inactive |
| O=c1oc2c(CN3CCCCCC3)c(O)ccc2cc1-c1nc2ccccc2[nH]1 | inconclusive: 17.8 µM [inhibitor, partial curve] |
| CCC(Nc1ccc(-c2nc(-c3cccnc3)no2)cc1[N+](=O)[O-])c1ccccc1 (stereo not drawn) | inactive |
| CCc1ccc(/C=C2/SC(=S)N(CCC(=O)Nc3ccc(C(=O)O)cc3)C2=O)cc1 | inconclusive: 2 µM [inhibitor, partial curve] |
| O=c1c(CN2CCN(c3cccc(Cl)c3)CC2)coc2c(Cl)cc(Cl)cc12 | inconclusive: 0.891 µM [inhibitor, single point] |
| Cc1cc(C)cc(OCc2nnc(N)s2)c1 | inconclusive: 12.6 µM [inhibitor, partial curve, poor fit] |
| COc1cc(OC)c(OC)cc1/C=N/n1c(COc2ccccc2)n[nH]c1=S | inactive |
| Cn1sc(NC(=O)c2ccccc2Cl)nc1=O | inconclusive: 39.8 µM [inhibitor, single point] |
| O=C(CSc1nc2scc(-c3ccco3)c2c(=O)n1-c1ccccc1)NCC1CCCO1 (stereo not drawn) | inconclusive: 14.1 µM [inhibitor, partial curve] |
| O=C(Nc1cc(Cl)ccc1Cl)C1Cc2ccccc2O/C1=N\O (stereo not drawn) | inconclusive: 1 µM [inhibitor, full curve, poor fit] |
| COc1ccc(N(CC(=O)NCCc2ccccc2)S(=O)(=O)c2c(C)nn(C)c2C)cc1 | inactive |
| CCOc1ccc(C(=O)NCC(=O)OCCCOC(=O)CNC(=O)c2ccc(OCC)cc2)cc1 | inconclusive: 12.6 µM [inhibitor, partial curve] |
| O=C(N/N=C/c1ccccc1F)c1cccc2ccccc12 | inactive |
| O=C(C[C@@H]1C/C=C\CCCC(=O)OC[C@@H]2CCCN2C1=O)N[C@@H](CO)Cc1ccccc1 | inactive |
| CC(C)CCN1CCN(Cc2ccc(N3CCNC3=O)cc2)CC1CCO (stereo not drawn) | inconclusive: 0.708 µM [inhibitor, single point] |
| CC(=O)Nc1ccc(S(=O)(=O)Nc2nc3nc(-c4ccccc4)cc(-c4ccccc4)n3n2)cc1 | inconclusive: 20 µM [inhibitor, partial curve, poor fit] |
| Cc1cc(Cl)ccc1NC(=S)NCc1ccccc1 | inactive |
| O=C(O)CC(C(=O)O)N1C(=O)/C(=C/c2ccc(-c3nc4ccccc4s3)o2)SC1=S (stereo not drawn) | inconclusive: 39.8 µM [inhibitor, single point] |
| CCc1c(C)c2cc3c(c(C)c2oc1=O)OCN(CCc1ccc(OC)c(OC)c1)C3 | inconclusive: 31.6 µM [inhibitor, partial curve] |
| CCOC(=O)C1=C(O)C(Nc2nccs2)(C(F)(F)F)N=C1C (stereo not drawn) | inconclusive: 5.62 µM [inhibitor, single point] |
| CCOc1ccc(NS(=O)(=O)c2ccc(OCC(=O)NCCCOC)cc2)cc1 | inconclusive: 0.708 µM [inhibitor, single point] |
| O=C(NN=C1CCC(=NNC(=O)c2ccccn2)CC1)c1ccccn1 | inconclusive: 39.8 µM [inhibitor, single point] |

Some of these compounds in order of length of the SMILES, smallest number first:

| Compound | Potency |
| --- | --- |
| CCOC(=O)C1=C(O)C(Nc2nccs2)(C(F)(F)F)N=C1C (stereo not drawn) | inconclusive: 5.62 µM [inhibitor, single point] |
| O=C(NN=C1CCC(=NNC(=O)c2ccccn2)CC1)c1ccccn1 | inconclusive: 39.8 µM [inhibitor, single point] |
| COc1cc(OC)c(OC)cc1/C=N/n1c(COc2ccccc2)n[nH]c1=S | inactive |

Next results.

| Compound | Potency |
| --- | --- |
| CCOc1ccc(NC(=O)c2c(NCc3cc(OC)c(OC)cc3OC)sc3c2CCCC3)cc1 | inactive |
| Cc1c(NC(=O)NC(C)N2C(=O)C3C4C=CC(C4)C3C2=O)c(=O)n(-c2ccccc2)n1C (stereo not drawn) | inconclusive: 39.8 µM [inhibitor, single point] |
| CC(=O)Nc1ccc(S(=O)(=O)NCC2CCC(C(=O)NCCc3ccc(C)cc3)CC2)cc1 (stereo not drawn) | inconclusive: 5.01 µM [inhibitor, single point] |
| COc1ccc(NC(=O)/C=C/c2cc(Br)ccc2OC)cc1 | inconclusive: 0.631 µM [inhibitor, single point] |
| CC[N+](C)(CC)CC(=O)Nc1c(C)cccc1C | inconclusive: 14.1 µM [inhibitor, partial curve] |
| CC(=O)Nc1cccc(NC(=O)CS(=O)(=O)c2cn(CC(=O)N(C(C)C)C(C)C)c3ccccc23)c1 | inconclusive: 0.1 µM [inhibitor, full curve, poor fit] |
| COc1cc(C2CC(=O)c3c([nH]c(C(=O)OC4CCCC4)c3C)C2)cc(OC)c1OC (stereo not drawn) | inconclusive: 22.4 µM [inhibitor, single point] |
| CCCCCCNC(=O)c1cc(-c2ccco2)nc2ccccc12 | inconclusive: 25.1 µM [inhibitor, single point] |
| COc1ccc(C(=O)NC(C)c2nnc(SCC(=O)Nc3nc(C)cs3)n2C)cc1 (stereo not drawn) | inconclusive: 2.24 µM [inhibitor, partial curve] |
| CN1CCN(c2ccccc2NC(=O)c2ccc([N+](=O)[O-])o2)CC1 | inactive |
| Cc1cccc2[nH]c3c(N4CC=C(c5ccc(F)cc5)CC4)ncnc3c12 | inconclusive: 25.1 µM [inhibitor, partial curve, poor fit] |
| Cc1cc2nc(CSc3ccccc3)cc(=O)n2[nH]1 | inactive |
| CCOC(=O)c1ccc(NC(=O)Cn2nc(C)c3nn(-c4ccc(Cl)cc4)c(C)c3c2=O)cc1 | inactive |
| O=C1c2ccccc2NC(c2ccncc2)N1c1ccccn1 (stereo not drawn) | inconclusive: 28.2 µM [inhibitor, single point] |
| CN(C)/C=N/c1nc2nccc(-c3cccs3)n2n1 | inconclusive: 31.6 µM [inhibitor, single point] |
| Clc1ccc(CSc2nncn3c2cc2occc23)cc1 | inconclusive: 39.8 µM [inhibitor, single point] |
| CN(C)c1ccc(P(=O)(OC2CCCCC2)C(O)c2ccccn2)cc1 (stereo not drawn) | inconclusive: 5.01 µM [inhibitor, single point] |
| O=C(COC(=O)c1cc2ccccc2oc1=O)Nc1ccc(F)cc1F | inconclusive: 0.0891 µM [inhibitor, full curve, poor fit] |
| c1ccc(C(OC2CCCN(CCc3ccc4c(c3)OCO4)C2)c2ccccc2)cc1 (stereo not drawn) | inactive |
| COc1cc(OC)cc(C(=O)NCC(=O)OCC(=O)N2CCc3ccccc32)c1 | inactive |
| CS(=O)(=O)C1=NSC2=NC(=O)/C(=C\c3cccn3-c3ccccc3Cl)C(=N)N21 | inconclusive: 31.6 µM [inhibitor, single point] |
